The text below walks through data of paper PMC12308248.

Amino acid sequences for entries named in this document (tags omitted).
UniProt Q6GQQ9: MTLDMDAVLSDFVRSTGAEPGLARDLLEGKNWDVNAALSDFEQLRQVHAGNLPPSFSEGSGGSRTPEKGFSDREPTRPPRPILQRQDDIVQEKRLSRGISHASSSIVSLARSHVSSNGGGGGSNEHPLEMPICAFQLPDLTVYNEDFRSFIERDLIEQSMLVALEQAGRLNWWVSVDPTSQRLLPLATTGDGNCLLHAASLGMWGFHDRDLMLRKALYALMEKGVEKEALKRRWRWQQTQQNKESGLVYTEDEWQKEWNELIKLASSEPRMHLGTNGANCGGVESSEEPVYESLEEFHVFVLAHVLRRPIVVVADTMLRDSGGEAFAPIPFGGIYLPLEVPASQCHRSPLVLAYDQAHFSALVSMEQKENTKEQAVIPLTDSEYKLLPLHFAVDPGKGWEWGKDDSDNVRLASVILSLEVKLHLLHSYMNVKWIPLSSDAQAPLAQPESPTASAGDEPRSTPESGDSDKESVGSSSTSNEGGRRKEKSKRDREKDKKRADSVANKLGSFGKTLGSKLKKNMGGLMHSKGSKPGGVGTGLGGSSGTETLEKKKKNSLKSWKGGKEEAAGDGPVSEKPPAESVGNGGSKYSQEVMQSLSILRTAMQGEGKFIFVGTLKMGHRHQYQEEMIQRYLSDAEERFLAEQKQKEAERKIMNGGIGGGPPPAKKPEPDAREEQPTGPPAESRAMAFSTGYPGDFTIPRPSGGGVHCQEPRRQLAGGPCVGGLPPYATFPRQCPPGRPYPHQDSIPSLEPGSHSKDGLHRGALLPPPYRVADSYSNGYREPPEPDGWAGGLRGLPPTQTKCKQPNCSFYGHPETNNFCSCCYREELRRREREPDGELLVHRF
UniProt Q16665: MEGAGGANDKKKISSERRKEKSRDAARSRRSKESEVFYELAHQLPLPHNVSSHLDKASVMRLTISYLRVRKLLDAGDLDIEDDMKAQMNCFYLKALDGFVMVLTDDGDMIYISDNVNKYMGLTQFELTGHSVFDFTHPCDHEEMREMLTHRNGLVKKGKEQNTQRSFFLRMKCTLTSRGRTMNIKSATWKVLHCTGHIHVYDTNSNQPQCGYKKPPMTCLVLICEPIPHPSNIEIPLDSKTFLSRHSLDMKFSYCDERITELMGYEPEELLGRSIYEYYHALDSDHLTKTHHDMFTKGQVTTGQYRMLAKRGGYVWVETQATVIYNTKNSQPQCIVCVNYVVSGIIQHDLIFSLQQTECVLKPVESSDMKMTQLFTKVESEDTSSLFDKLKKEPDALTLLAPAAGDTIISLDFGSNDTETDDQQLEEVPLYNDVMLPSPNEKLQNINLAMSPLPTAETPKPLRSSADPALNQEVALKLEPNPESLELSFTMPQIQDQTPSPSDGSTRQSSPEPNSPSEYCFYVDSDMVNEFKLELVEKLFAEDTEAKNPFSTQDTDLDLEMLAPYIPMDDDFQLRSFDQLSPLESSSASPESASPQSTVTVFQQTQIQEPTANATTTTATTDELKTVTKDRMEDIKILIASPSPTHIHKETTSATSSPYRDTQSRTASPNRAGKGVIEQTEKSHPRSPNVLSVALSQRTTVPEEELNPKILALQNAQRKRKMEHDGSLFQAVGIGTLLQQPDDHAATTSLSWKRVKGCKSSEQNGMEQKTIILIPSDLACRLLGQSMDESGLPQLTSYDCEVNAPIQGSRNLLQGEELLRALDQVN

Experiment [1] addresses ovarian tumor deubiquitinase 7B (OTUD7B), endogenous (human (endogenous in TE-8)) (UniProt Q6GQQ9). The experiment can be described thus: co-IP; endogenous proteins; TE-8 cell lysates in RIPA buffer incubated overnight at 4°C with antibodies to OTUD7B or HIF-1α, protein A/G agarose beads, western blot. A general note: In western blotting, separated proteins are transferred to a membrane and probed.

Experiment [2] has as its target FLAG-OTUD7B (human) (UniProt Q6GQQ9). The experiment can be described thus: co-IP; HA-HIF-1α and FLAG-OTUD7B ectopically expressed in TE-8 cells; lysate subjected to IP with anti-FLAG/HA antibody, western blot.
The target in experiment [3] is hypoxia-inducible factor-1α (HIF-1α), endogenous (human (endogenous in TE-8)) (UniProt Q16665). The experiment can be described thus: co-IP; endogenous proteins; TE-8 cell lysates in RIPA buffer incubated overnight at 4°C with antibodies to OTUD7B or HIF-1α, protein A/G agarose beads, western blot.
In experiment [4] the target is HA-HIF-1α (UniProt Q16665). The experiment can be described thus: co-IP; HA-HIF-1α and FLAG-OTUD7B ectopically expressed in TE-8 cells; lysate subjected to IP with anti-FLAG/HA antibody, western blot.

These are yes or no findings as the source states them, for the method shown. In cells and extracts the contact can be indirect. Some binding calls cover weakened binding; strength is not graded here.

For “hypoxia-inducible factor-1α (HIF-1α), endogenous (from UniProt Q16665 1-826)”, in experiment [1], the binding result was “binds”. Turning to HA-HIF-1α (from UniProt Q16665 1-826), in experiment [2], the binding entry is listed as “binds”. In the case of “ovarian tumor deubiquitinase 7B (OTUD7B), endogenous (from UniProt Q6GQQ9 1-843) (enzyme)”, the binding entry in experiment [3] is “binds”. “FLAG-OTUD7B (from UniProt Q6GQQ9 1-843) (enzyme)”: the binding entry in experiment [4] was “binds”.
